The record followed here is doi:10.1101/2021.12.06.470909.

Sequences of proteins named here, by UniProt entry; tags and fusion partners are left off.
UniProt O13731: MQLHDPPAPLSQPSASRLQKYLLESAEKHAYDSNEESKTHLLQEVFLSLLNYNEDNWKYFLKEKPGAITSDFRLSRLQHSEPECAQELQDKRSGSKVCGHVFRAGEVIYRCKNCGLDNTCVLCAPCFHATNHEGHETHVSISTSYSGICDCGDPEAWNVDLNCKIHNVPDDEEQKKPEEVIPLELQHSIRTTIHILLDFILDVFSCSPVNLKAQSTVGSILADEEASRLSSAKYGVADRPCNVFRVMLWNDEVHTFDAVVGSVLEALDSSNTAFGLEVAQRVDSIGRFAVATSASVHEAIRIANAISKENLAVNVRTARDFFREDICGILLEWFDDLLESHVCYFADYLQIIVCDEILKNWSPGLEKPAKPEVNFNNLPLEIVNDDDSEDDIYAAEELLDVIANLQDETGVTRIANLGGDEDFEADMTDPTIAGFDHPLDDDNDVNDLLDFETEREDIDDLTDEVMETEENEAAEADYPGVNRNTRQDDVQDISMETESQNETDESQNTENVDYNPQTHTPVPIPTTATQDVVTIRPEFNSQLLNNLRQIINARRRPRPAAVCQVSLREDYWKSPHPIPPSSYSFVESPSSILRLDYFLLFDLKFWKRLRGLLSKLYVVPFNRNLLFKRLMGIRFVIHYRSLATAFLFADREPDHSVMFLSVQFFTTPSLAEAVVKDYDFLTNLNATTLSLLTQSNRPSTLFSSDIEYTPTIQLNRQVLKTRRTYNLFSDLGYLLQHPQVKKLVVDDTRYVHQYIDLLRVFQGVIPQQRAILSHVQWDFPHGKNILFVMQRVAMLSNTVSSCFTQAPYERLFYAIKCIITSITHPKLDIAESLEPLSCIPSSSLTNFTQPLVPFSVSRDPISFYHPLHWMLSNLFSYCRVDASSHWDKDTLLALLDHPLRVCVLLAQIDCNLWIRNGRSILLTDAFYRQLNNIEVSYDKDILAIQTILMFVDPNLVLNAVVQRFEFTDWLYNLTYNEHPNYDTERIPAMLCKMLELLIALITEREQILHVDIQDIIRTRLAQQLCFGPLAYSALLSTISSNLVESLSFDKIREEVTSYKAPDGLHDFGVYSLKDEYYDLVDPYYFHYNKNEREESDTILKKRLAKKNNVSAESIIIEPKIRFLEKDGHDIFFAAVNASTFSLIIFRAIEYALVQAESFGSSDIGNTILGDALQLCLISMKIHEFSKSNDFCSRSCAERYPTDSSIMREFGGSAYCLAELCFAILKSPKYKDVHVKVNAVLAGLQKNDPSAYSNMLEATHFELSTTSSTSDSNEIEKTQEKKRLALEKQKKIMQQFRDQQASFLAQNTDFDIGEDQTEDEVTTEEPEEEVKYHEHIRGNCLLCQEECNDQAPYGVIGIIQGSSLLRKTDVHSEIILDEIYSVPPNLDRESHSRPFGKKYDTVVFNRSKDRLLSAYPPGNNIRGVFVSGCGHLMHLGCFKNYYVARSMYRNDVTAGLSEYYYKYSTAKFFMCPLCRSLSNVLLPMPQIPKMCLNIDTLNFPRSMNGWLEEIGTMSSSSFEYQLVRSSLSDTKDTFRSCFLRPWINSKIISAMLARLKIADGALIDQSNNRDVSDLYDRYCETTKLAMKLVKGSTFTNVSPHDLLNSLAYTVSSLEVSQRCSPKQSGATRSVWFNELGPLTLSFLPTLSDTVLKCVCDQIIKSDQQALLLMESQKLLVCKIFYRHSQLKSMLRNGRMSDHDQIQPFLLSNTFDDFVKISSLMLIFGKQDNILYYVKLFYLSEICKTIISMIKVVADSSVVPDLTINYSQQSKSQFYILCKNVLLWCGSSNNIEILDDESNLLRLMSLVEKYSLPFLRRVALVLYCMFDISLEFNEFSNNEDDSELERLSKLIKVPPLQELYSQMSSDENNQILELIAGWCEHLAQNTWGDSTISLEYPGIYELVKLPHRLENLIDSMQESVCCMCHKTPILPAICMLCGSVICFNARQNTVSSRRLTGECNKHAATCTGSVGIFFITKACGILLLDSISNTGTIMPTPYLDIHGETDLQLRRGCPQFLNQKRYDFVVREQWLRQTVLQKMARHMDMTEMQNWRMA

These are yes or no findings as the source states them, for the method shown. In cells and extracts the contact can be indirect. A yes stands for co-enrichment or nearness to the bait. Other partners may have been found. Sequences can lack the tags named with a protein.

In this test the target is T1, Cts1-flag-3HA (S. pombe CTP synthase tagged with flag and 3HA) (S. pombe) (UniProt O42644).
T1 sequence: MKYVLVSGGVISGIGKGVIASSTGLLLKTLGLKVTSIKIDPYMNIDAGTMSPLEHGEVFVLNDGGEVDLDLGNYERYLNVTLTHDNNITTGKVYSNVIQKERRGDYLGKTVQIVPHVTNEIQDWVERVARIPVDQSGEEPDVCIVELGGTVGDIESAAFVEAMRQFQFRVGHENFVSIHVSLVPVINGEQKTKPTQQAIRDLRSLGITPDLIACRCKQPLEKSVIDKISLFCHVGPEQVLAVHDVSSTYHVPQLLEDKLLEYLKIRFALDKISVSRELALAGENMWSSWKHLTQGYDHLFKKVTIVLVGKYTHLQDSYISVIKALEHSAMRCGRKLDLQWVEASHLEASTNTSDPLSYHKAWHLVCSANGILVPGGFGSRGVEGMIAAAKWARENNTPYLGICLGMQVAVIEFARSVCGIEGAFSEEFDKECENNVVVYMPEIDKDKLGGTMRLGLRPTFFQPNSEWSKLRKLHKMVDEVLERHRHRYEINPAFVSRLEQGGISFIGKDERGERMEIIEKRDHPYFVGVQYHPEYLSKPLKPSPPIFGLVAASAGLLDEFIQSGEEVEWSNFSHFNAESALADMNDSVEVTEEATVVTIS
Nature of the test: affinity purification with mass spectrometry.

Regarding “Ubr11 ubiquitin ligase (from UniProt O13731 1-2052) (enzyme)”, the binding result is “binds”.

B1: Mug30 ubiquitin ligase (enzyme, UniProt O94275 1-807)
chain: MSRPIEIANVSSGNRRTLPALHGSSFSSRSELDNNTNSKISRRLRELVCQRMGENPLRLRQSFHETISNDSYGNSEKLVIRPCICCNSVLRYPAQAMCFRCSLCMTVNDVYFCLSGSQIKTKASTDGSQFISVEHFVETIHQTRSALQLAKQRTGNVQAIVAAGLPLRELISLVFGSPPILNKLFSVKNGCSIQSSGLNYKLIYQLYHDITNLDILITNELLRAIESLLRRPMLYCHDPADYQYLLILLENPLLNSKSKNIVNKSSSILKRILGVLSNLNEKTHHFFISCFKKQPYNNPKFFRRKVDLINKFIGQRLMETYSRNKRKHYYNNDWQIKSAAITMALLYSANSQMRLIDRSSFYCIMADFINLYHDFELWEQKINCFCFCQYPFLLSMGAKISILQLDARRKMEIKAREAFFSSILSKMNVEPYLMIRVRRDRLLEDSLRQINDRNKDFRKALKVEFLGEEGIDAGGLKREWLLLLTRKVFSPEFGLFVNCEESSNYLWFNYSHRSKEIDYYHMSGILMGIAIHNSINLDVQMPRAFYKKLLQLPLSFNDLDDFQPSLYRGLKELLLFEGDVKNTYGLNFTINLKAVEGFRTVELKEGGSELSVDNENRKEYVLRYVDYLLNTTVKKQFSAFFDGFMKVCGGNAISLFQDNEISKLIRGSEEVIDWELLKNVCVYDFYDQNAISNSISESEPSMTASKYLCHSFVSKRKIILWFWDLISHYSLKMQKLFLIFVTGSDRIPATGAHNFQLRISVLGPDSDQLPISHTCFNHLCIWEYSSREKLKKKLDTALLETNGFNIR
Regarding B1, the binding entry is listed as “binds”.
